Test results from the supplement of paper PMC11438910.
The other results are listed elsewhere or left out. Most of these values are background signal.

Columns and labels:
Assay in all cases: fluorescence intensity of antibody binding to polysaccharide-coupled beads; higher = stronger binding
[1] = target: pneumococcal polysaccharide Pn11A
[2] = target: pneumococcal polysaccharide Pn11B
[3] = target: pneumococcal polysaccharide Pn11C
[4] = target: pneumococcal polysaccharide Pn11D
[5] = target: pneumococcal polysaccharide Pn11F
[6] = target: pneumococcal polysaccharide Pn12A
[7] = target: pneumococcal polysaccharide Pn12B
[8] = target: pneumococcal polysaccharide Pn12F
[9] = target: pneumococcal polysaccharide Pn13
[10] = target: pneumococcal polysaccharide Pn14
[11] = target: pneumococcal polysaccharide Pn15A
[12] = target: pneumococcal polysaccharide Pn15B
[13] = antibody concentration 81.7561 ng/mL
[14] = antibody concentration 437.17 ng/mL
[15] = antibody concentration 2337.65 ng/mL
[16] = antibody concentration 12500 ng/mL
[17] = antibody concentration 0.1 ng/mL
[18] = antibody concentration 0.534724 ng/mL
[19] = antibody concentration 2.8593 ng/mL
[20] = antibody concentration 15.2894 ng/mL

B1: 4-80.2 (protein)
chain 1: QVQLQESGPGLVKPSETLSLTCAVSGDSFSSYWWSWIRQPPGKGLEWIGEINGNVGSTNYNPSLKSRVTISKDASKNQFSLKLSSVTAADTAVYYCARYKEYWGQGVLVTVSS
chain 2: DVVMTQSPLSLPITPGQPASISCRSSQSLVHSNGNTYLSWYQQKPGQPPRRLIYEVSNRDSGVPDRFSGSGAGTDFTLKISRVEAEDVGVYYCGQGTHLPYSFGQGTKVEIK
[1]; [13]
  fluorescence intensity: 27.8 MFI
[1]; [14]
  fluorescence intensity: 31 MFI
[1]; [15]
  fluorescence intensity: 30.5 MFI
[1]; [16]
  fluorescence intensity: 34 MFI
[2]; [17]
  fluorescence intensity: 27.5 MFI
[2]; [18]
  fluorescence intensity: 27 MFI
[2]; [19]
  fluorescence intensity: 25.8 MFI
[2]; [20]
  fluorescence intensity: 25.8 MFI
[2]; [13]
  fluorescence intensity: 24 MFI
[2]; [14]
  fluorescence intensity: 31 MFI
[2]; [15]
  fluorescence intensity: 31.5 MFI
[2]; [16]
  fluorescence intensity: 36.5 MFI
[3]; [17]
  fluorescence intensity: 24 MFI
[3]; [18]
  fluorescence intensity: 22.5 MFI
[3]; [19]
  fluorescence intensity: 21.5 MFI
[3]; [20]
  fluorescence intensity: 22 MFI
[3]; [13]
  fluorescence intensity: 22 MFI
[3]; [14]
  fluorescence intensity: 22 MFI
[3]; [15]
  fluorescence intensity: 26.8 MFI
[3]; [16]
  fluorescence intensity: 63.5 MFI
[4]; [17]
  fluorescence intensity: 23.8 MFI
[4]; [18]
  fluorescence intensity: 24.5 MFI
[4]; [19]
  fluorescence intensity: 23.5 MFI
[4]; [20]
  fluorescence intensity: 22.8 MFI
[4]; [13]
  fluorescence intensity: 25 MFI
[4]; [14]
  fluorescence intensity: 23.2 MFI
[4]; [15]
  fluorescence intensity: 25.5 MFI
[4]; [16]
  fluorescence intensity: 42.5 MFI
[5]; [17]
  fluorescence intensity: 16.5 MFI
[5]; [18]
  fluorescence intensity: 14.2 MFI
[5]; [19]
  fluorescence intensity: 14.5 MFI
[5]; [20]
  fluorescence intensity: 15 MFI
[5]; [13]
  fluorescence intensity: 16 MFI
[5]; [14]
  fluorescence intensity: 15 MFI
[5]; [15]
  fluorescence intensity: 15.5 MFI
[5]; [16]
  fluorescence intensity: 17.8 MFI
[6]; [17]
  fluorescence intensity: 16.2 MFI
[6]; [18]
  fluorescence intensity: 16 MFI
[6]; [19]
  fluorescence intensity: 15.2 MFI
[6]; [20]
  fluorescence intensity: 15 MFI
[6]; [13]
  fluorescence intensity: 14.5 MFI
[6]; [14]
  fluorescence intensity: 14.8 MFI
[6]; [15]
  fluorescence intensity: 17.8 MFI
[6]; [16]
  fluorescence intensity: 26 MFI
[7]; [17]
  fluorescence intensity: 16.5 MFI
[7]; [18]
  fluorescence intensity: 16.5 MFI
[7]; [19]
  fluorescence intensity: 16.5 MFI
[7]; [20]
  fluorescence intensity: 15 MFI
[7]; [13]
  fluorescence intensity: 16.5 MFI
[7]; [14]
  fluorescence intensity: 17.5 MFI
[7]; [15]
  fluorescence intensity: 17.2 MFI
[7]; [16]
  fluorescence intensity: 27.5 MFI
[8]; [17]
  fluorescence intensity: 20.2 MFI
[8]; [18]
  fluorescence intensity: 21 MFI
[8]; [19]
  fluorescence intensity: 18.8 MFI
[8]; [20]
  fluorescence intensity: 17.5 MFI
[8]; [13]
  fluorescence intensity: 19.5 MFI
[8]; [14]
  fluorescence intensity: 20.5 MFI
[8]; [15]
  fluorescence intensity: 18.8 MFI
[8]; [16]
  fluorescence intensity: 27 MFI
[9]; [17]
  fluorescence intensity: 19.8 MFI
[9]; [18]
  fluorescence intensity: 20 MFI
[9]; [19]
  fluorescence intensity: 21 MFI
[9]; [20]
  fluorescence intensity: 19.5 MFI
[9]; [13]
  fluorescence intensity: 19 MFI
[9]; [14]
  fluorescence intensity: 18 MFI
[9]; [15]
  fluorescence intensity: 20.5 MFI
[9]; [16]
  fluorescence intensity: 25 MFI
[10]; [17]
  fluorescence intensity: 15.5 MFI
[10]; [18]
  fluorescence intensity: 16 MFI
[10]; [19]
  fluorescence intensity: 16.2 MFI
[10]; [20]
  fluorescence intensity: 15.2 MFI
[10]; [13]
  fluorescence intensity: 15.8 MFI
[10]; [14]
  fluorescence intensity: 16.5 MFI
[10]; [15]
  fluorescence intensity: 18.5 MFI
[10]; [16]
  fluorescence intensity: 63.5 MFI
[11]; [17]
  fluorescence intensity: 13.5 MFI
[11]; [18]
  fluorescence intensity: 13.5 MFI
[11]; [19]
  fluorescence intensity: 14 MFI
[11]; [20]
  fluorescence intensity: 14.5 MFI
[11]; [13]
  fluorescence intensity: 13 MFI
[11]; [14]
  fluorescence intensity: 13 MFI
[11]; [15]
  fluorescence intensity: 12.5 MFI
[11]; [16]
  fluorescence intensity: 15.5 MFI
[12]; [17]
  fluorescence intensity: 18.5 MFI
[12]; [18]
  fluorescence intensity: 19 MFI
[12]; [19]
  fluorescence intensity: 20 MFI
[12]; [20]
  fluorescence intensity: 19.8 MFI
[12]; [13]
  fluorescence intensity: 20.5 MFI
[12]; [14]
  fluorescence intensity: 20 MFI
